Experimental data published in PMC12196928, “Site-Directed Mutagenesis Mediated by Molecular Modeling and Docking and Its Effect on the Protein–Protein Interactions of the bHLH Transcription Factors SPATULA, HECATE1, and INDEHISCENT” (Plants, 2025).
Changes are numbered by the printed parent chain. In names and notes the source's numbering stands. No constants are given. Whether binding was seen depends on the method and setting. In cells and extracts the contact can be indirect. Sequences can lack the tags named with a protein. Each block holds one binder with its values, some of them ahead of it.

How the values were obtained:
[1] = biological target: T1, VN:SPT-4A (SPATULA V176A-V177A-D178A-E179A fused to the N-terminal fragment of Venus YFP) (Arabidopsis thaliana) (UniProt Q9FUA4); experiment: split reporter; BiFC with split Venus YFP (VN 1-154, VC 155-238) in Arabidopsis Col-0 mesophyll protoplasts, PEG-Ca transfection, 35S promoter, read 16 h after transfection by confocal microscopy; frequency = YFP-positive protoplasts/total protoplasts x 100, four images of about 200 protoplasts …
T1 sequence: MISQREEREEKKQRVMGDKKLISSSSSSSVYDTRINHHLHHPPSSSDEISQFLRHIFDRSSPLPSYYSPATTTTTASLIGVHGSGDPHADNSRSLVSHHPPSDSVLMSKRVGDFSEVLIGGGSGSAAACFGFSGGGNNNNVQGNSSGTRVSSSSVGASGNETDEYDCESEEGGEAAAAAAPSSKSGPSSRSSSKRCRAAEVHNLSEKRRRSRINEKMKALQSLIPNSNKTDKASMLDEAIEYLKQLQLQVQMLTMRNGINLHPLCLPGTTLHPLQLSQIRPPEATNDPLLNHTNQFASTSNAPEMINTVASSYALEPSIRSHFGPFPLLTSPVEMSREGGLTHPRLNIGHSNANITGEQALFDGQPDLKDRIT

[2] = biological target: T2, VN:SPT (SPATULA fused to the N-terminal fragment of Venus YFP) (Arabidopsis thaliana) (UniProt Q9FUA4); experiment: as above
T2 sequence: T1 sequence with A176V, A177V, A178D, A179E

binding [1]: no binding
binding [2]: no binding
B1: VC:HEC1-2A (HECATE1 R138A-H139A fused to the C-terminal fragment of Venus YFP) (protein, UniProt Q9FHA7 1-241)
chain: MDSDIMNMMMHQMEKLPEFCNPNSSFFSPDHNNTYPFLFNSTHYQSDHSMTNEPGFRYGSGLLTNPSSISPNTAYSSVFLDKRNNSNNNNNGTNMAAMREMIFRIAVMQPIHIDPEAVKPPKRRNVRISKDPQSVAAAARRERISERIRILQRLVPGGTKMDTASMLDEAIHYVKFLKKQVQSLEEQAVVTGGGGGGGGRVLIGGGGMTAASGGGGGGGVVMKGCGTVGTHQMVGNAQILR

binding [1]: no binding
B2: VC:HEC1 (HECATE1 fused to the C-terminal fragment of Venus YFP) (natural protein, Arabidopsis thaliana, UniProt Q9FHA7 1-241, looked up)
chain: B1 chain with A138R, A139H
notes: HECATE1 (HEC1), bHLH transcription factor of Arabidopsis thaliana, AT5G67060; source: Arabidopsis Col-0 mesophyll protoplasts, transfected (PEG-Ca), in cells; not shown: Venus YFP C-terminal fragment (residues 155-238)
